Experiment [1] has as its target T1, Myc-tagged WDR44 N840S (human) (UniProt Q5JSH3).
T1 sequence: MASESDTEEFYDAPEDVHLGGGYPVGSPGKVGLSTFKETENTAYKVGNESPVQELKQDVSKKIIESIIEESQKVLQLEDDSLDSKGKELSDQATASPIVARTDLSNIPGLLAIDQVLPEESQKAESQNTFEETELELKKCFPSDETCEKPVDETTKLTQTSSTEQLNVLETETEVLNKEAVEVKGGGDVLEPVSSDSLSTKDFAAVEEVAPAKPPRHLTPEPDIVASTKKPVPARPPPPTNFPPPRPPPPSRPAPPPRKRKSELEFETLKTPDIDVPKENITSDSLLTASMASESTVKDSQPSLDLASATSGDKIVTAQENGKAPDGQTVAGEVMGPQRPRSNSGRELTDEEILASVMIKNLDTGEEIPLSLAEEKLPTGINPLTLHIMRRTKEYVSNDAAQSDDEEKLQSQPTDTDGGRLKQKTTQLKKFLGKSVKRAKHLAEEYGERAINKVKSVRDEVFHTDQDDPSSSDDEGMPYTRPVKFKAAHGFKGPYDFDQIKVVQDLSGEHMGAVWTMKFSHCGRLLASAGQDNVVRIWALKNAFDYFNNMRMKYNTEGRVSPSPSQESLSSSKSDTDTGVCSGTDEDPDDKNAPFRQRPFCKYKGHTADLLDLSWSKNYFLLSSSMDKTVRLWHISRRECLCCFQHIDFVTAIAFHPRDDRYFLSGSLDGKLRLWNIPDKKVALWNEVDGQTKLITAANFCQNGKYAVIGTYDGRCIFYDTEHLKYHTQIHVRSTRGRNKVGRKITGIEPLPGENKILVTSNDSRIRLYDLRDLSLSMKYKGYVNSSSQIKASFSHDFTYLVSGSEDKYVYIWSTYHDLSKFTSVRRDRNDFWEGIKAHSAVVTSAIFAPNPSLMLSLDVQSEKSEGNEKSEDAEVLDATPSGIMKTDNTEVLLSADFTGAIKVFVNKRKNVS
Description: co-IP; GFP-RAB11A and Myc-WDR44 wild-type or variant coexpressed in 293T for 48 h; Myc-tagged proteins immunoprecipitated from lysate (150 mM NaCl, 20 mM Tris HCl pH 8.0, 10% glycerol, 1% Triton X-100; Protein G Sepharose), blots probed for GFP and Myc; also done after 3 h and 24 h serum starvation (wild-type, G782C, S764F).

Sequences of proteins named here, by UniProt entry; tags and fusion partners are left off.
UniProt P62491: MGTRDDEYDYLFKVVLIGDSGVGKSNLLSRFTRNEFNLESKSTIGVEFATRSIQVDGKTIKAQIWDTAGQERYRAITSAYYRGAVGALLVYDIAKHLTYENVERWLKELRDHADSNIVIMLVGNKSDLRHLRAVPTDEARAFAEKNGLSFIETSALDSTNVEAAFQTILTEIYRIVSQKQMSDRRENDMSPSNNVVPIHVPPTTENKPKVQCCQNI

Experiment [2] concerns the target T2, Myc-tagged WDR44 S764F (human) (UniProt Q5JSH3).
T2 sequence: T1 sequence with S764F, S840N
Described as above.

Experimental findings from article PMC10774338 are described below.

Positions count from the first letter of the chain named. Results are given in words; binding and its absence hold for the method and conditions named. In cells and extracts the contact can be indirect. Some entries that bind do so weakly or less than the wild type. Sequences can lack the tags named with a protein.

Take “GFP-tagged RAB11A (from UniProt P62491 1-216)”: the binding result in experiment [1] and in experiment [2] was “binds” throughout.
